Residue numbers refer to the chain shown, from its start. The list shows a part of the results. For some of these results: At the low end of the ranking the order means little.
Tests used:
Conditions in all cases: yeast three-hybrid, YBZ-1, SC-Leu-His + 0.5 mM 3-AT, 4 days
[1] = molecular target: T1, PUM1 PUF domain R4-MRG N971M + H972R + Q975G (UniProt Q14671)
T1 sequence: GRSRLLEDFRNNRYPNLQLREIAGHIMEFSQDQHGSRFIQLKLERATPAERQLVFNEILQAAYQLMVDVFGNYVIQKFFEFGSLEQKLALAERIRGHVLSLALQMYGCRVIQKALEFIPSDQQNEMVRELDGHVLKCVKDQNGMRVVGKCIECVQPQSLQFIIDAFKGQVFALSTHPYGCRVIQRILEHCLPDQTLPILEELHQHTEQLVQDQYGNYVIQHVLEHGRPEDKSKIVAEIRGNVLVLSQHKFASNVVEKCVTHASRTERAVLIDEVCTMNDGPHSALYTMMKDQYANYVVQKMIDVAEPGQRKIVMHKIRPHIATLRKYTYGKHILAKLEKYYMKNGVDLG

[2] = molecular target: T2, PUM1 PUF domain R4-NCG H972C + Q975G (UniProt Q14671)
T2 sequence: T1 sequence with M144N, R145C

[3] = molecular target: T3, PUM1 PUF domain R4-NNG H972N + Q975G (UniProt Q14671)
T3 sequence: T1 sequence with M144N, R145N

[4] = molecular target: T4, PUM1 PUF domain R4-NNL H972N + Q975L (UniProt Q14671)
T4 sequence: T1 sequence with M144N, R145N, G148L

[5] = molecular target: T5, PUM1 PUF domain R4-NNV H972N + Q975V (UniProt Q14671)
T5 sequence: T1 sequence with M144N, R145N, G148V

[6] = molecular target: T6, PUM1 PUF domain R4-NNW H972N + Q975W (UniProt Q14671)
T6 sequence: T1 sequence with M144N, R145N, G148W

[7] = molecular target: T7, PUM1 PUF domain R4-NPA H972P + Q975A (UniProt Q14671)
T7 sequence: T1 sequence with M144N, R145P, G148A

[8] = molecular target: T8, PUM1 PUF domain R4-NPG H972P + Q975G (UniProt Q14671)
T8 sequence: T1 sequence with M144N, R145P

[9] = molecular target: T9, PUM1 PUF domain R4-NRG H972R + Q975G (UniProt Q14671)
T9 sequence: T1 sequence with M144N

[10] = molecular target: T10, PUM1 PUF domain R4-NWP H972W + Q975P (UniProt Q14671)
T10 sequence: T1 sequence with M144N, R145W, G148P

[11] = molecular target: T11, PUM1 PUF domain R4-NYP H972Y + Q975P (UniProt Q14671)
T11 sequence: T1 sequence with M144N, R145Y, G148P

[12] = molecular target: T12, PUM1 PUF domain R4-PFD N971P + H972F + Q975D (UniProt Q14671)
T12 sequence: T1 sequence with M144P, R145F, G148D

[13] = molecular target: T13, PUM1 PUF domain R4-PFF N971P + H972F + Q975F (UniProt Q14671)
T13 sequence: T1 sequence with M144P, R145F, G148F

[14] = molecular target: T14, PUM1 PUF domain R4-PFG N971P + H972F + Q975G (UniProt Q14671)
T14 sequence: T1 sequence with M144P, R145F

[15] = molecular target: T15, PUM1 PUF domain R4-PFN N971P + H972F + Q975N (UniProt Q14671)
T15 sequence: T1 sequence with M144P, R145F, G148N

[16] = molecular target: T16, PUM1 PUF domain R4-PFR N971P + H972F + Q975R (UniProt Q14671)
T16 sequence: T1 sequence with M144P, R145F, G148R

[17] = molecular target: T17, PUM1 PUF domain R4-PFS N971P + H972F + Q975S (UniProt Q14671)
T17 sequence: T1 sequence with M144P, R145F, G148S

[18] = molecular target: T18, PUM1 PUF domain R4-PFT N971P + H972F + Q975T (UniProt Q14671)
T18 sequence: T1 sequence with M144P, R145F, G148T

[19] = molecular target: T19, PUM1 PUF domain R4-PFV N971P + H972F + Q975V (UniProt Q14671)
T19 sequence: T1 sequence with M144P, R145F, G148V

[20] = molecular target: T20, PUM1 PUF domain R4-PFY N971P + H972F + Q975Y (Homo sapiens) (UniProt Q14671)
T20 sequence: T1 sequence with M144P, R145F, G148Y

[21] = molecular target: T21, PUM1 PUF domain R4-PHA N971P + Q975A (UniProt Q14671)
T21 sequence: T1 sequence with M144P, R145H, G148A

[22] = molecular target: T22, PUM1 PUF domain R4-PHG N971P + Q975G (UniProt Q14671)
T22 sequence: T1 sequence with M144P, R145H

[23] = molecular target: T23, PUM1 PUF domain R4-PHQ N971P (UniProt Q14671)
T23 sequence: T1 sequence with M144P, R145H, G148Q

[24] = molecular target: T24, PUM1 PUF domain R4-PHS N971P + Q975S (UniProt Q14671)
T24 sequence: T1 sequence with M144P, R145H, G148S

[25] = molecular target: T25, PUM1 PUF domain R4-PHV N971P + Q975V (UniProt Q14671)
T25 sequence: T1 sequence with M144P, R145H, G148V

[26] = molecular target: T26, PUM1 PUF domain R4-PRC N971P + H972R + Q975C (UniProt Q14671)
T26 sequence: T1 sequence with M144P, G148C

[27] = molecular target: T27, PUM1 PUF domain R4-PRQ N971P + H972R (UniProt Q14671)
T27 sequence: T1 sequence with M144P, G148Q

[28] = molecular target: T28, PUM1 PUF domain R4-PTC N971P + H972T + Q975C (UniProt Q14671)
T28 sequence: T1 sequence with M144P, R145T, G148C

[29] = molecular target: T29, PUM1 PUF domain R4-PWG N971P + H972W + Q975G (UniProt Q14671)
T29 sequence: T1 sequence with M144P, R145W

[30] = molecular target: T30, PUM1 PUF domain R4-PWR N971P + H972W + Q975R (UniProt Q14671)
T30 sequence: T1 sequence with M144P, R145W, G148R

[31] = molecular target: T31, PUM1 PUF domain R4-PWS N971P + H972W + Q975S (UniProt Q14671)
T31 sequence: T1 sequence with M144P, R145W, G148S

[32] = molecular target: T32, PUM1 PUF domain R4-PYA N971P + H972Y + Q975A (UniProt Q14671)
T32 sequence: T1 sequence with M144P, R145Y, G148A

[33] = molecular target: T33, PUM1 PUF domain R4-PYE N971P + H972Y + Q975E (Homo sapiens) (UniProt Q14671)
T33 sequence: T1 sequence with M144P, R145Y, G148E

[34] = molecular target: T34, PUM1 PUF domain R4-PYG N971P + H972Y + Q975G (Homo sapiens) (UniProt Q14671)
T34 sequence: T1 sequence with M144P, R145Y

[35] = molecular target: T35, PUM1 PUF domain R4-PYR N971P + H972Y + Q975R (UniProt Q14671)
T35 sequence: T1 sequence with M144P, R145Y, G148R

[36] = molecular target: T36, PUM1 PUF domain R4-PYS N971P + H972Y + Q975S (Homo sapiens) (UniProt Q14671)
T36 sequence: T1 sequence with M144P, R145Y, G148S

[37] = molecular target: T37, PUM1 PUF domain R4-QGA N971Q + H972G + Q975A (UniProt Q14671)
T37 sequence: T1 sequence with M144Q, R145G, G148A

[38] = molecular target: T38, PUM1 PUF domain R4-QGG N971Q + H972G + Q975G (UniProt Q14671)
T38 sequence: T1 sequence with M144Q, R145G

[39] = molecular target: T39, PUM1 PUF domain R4-QHR N971Q + Q975R (UniProt Q14671)
T39 sequence: T1 sequence with M144Q, R145H, G148R

[40] = molecular target: T40, PUM1 PUF domain R4-QPG N971Q + H972P + Q975G (UniProt Q14671)
T40 sequence: T1 sequence with M144Q, R145P

GGCUAGAACUAGUGGAUCCCCCGGCGCCCGGCGGCUCGAGCCCGGGUAAGUGUAGAUAGUCUGCAUGCCGCCGGGCGCCAUGCCUGCAGGUCGACUCUAGAAAACAUG
binding signal (log2 enrichment (interaction score)) [1]: < -6.19
binding signal (log2 enrichment (interaction score)) [2]: < -6.65
binding signal (log2 enrichment (interaction score)) [3]: < -5.72
binding signal (log2 enrichment (interaction score)) [4]: < -6.11
binding signal (log2 enrichment (interaction score)) [5]: < -6.74
binding signal (log2 enrichment (interaction score)) [6]: < -5.53
binding signal (log2 enrichment (interaction score)) [7]: < -6.06
binding signal (log2 enrichment (interaction score)) [8]: < -6.94
binding signal (log2 enrichment (interaction score)) [9]: < -6.17
binding signal (log2 enrichment (interaction score)) [10]: -2.46
binding signal (log2 enrichment (interaction score)) [11]: -2.7
binding signal (log2 enrichment (interaction score)) [12]: < -5.48
binding signal (log2 enrichment (interaction score)) [13]: < -6.02
binding signal (log2 enrichment (interaction score)) [14]: < -7.01
binding signal (log2 enrichment (interaction score)) [15]: < -5.38
binding signal (log2 enrichment (interaction score)) [16]: < -7.82
binding signal (log2 enrichment (interaction score)) [17]: < -7.34
binding signal (log2 enrichment (interaction score)) [18]: < -5.95
binding signal (log2 enrichment (interaction score)) [19]: < -7.56
binding signal (log2 enrichment (interaction score)) [20]: 1.62
binding signal (log2 enrichment (interaction score)) [21]: < -6.74
binding signal (log2 enrichment (interaction score)) [22]: < -6.32
binding signal (log2 enrichment (interaction score)) [23]: < -5.87
binding signal (log2 enrichment (interaction score)) [24]: < -4.86
binding signal (log2 enrichment (interaction score)) [25]: < -6.36
binding signal (log2 enrichment (interaction score)) [26]: < -6.58
binding signal (log2 enrichment (interaction score)) [27]: < -6.73
binding signal (log2 enrichment (interaction score)) [28]: < -7.06
binding signal (log2 enrichment (interaction score)) [29]: < -6.4
binding signal (log2 enrichment (interaction score)) [30]: < -7.76
binding signal (log2 enrichment (interaction score)) [31]: < -6.26
binding signal (log2 enrichment (interaction score)) [32]: < -5.84
binding signal (log2 enrichment (interaction score)) [33]: < -5.04
binding signal (log2 enrichment (interaction score)) [34]: -4.48
binding signal (log2 enrichment (interaction score)) [35]: < -7.36
binding signal (log2 enrichment (interaction score)) [36]: -2.67
binding signal (log2 enrichment (interaction score)) [37]: < -6.13
binding signal (log2 enrichment (interaction score)) [38]: < -6.79
binding signal (log2 enrichment (interaction score)) [39]: -3.39
binding signal (log2 enrichment (interaction score)) [40]: < -7.73
